Reference: the supplement of paper PMC10849652
The list shows a part of the results.

Sequences of proteins named here, by UniProt entry; tags and fusion partners are left off. A change or cut given only in a name is not applied to a line headed by its entry.
UniProt Q96G23: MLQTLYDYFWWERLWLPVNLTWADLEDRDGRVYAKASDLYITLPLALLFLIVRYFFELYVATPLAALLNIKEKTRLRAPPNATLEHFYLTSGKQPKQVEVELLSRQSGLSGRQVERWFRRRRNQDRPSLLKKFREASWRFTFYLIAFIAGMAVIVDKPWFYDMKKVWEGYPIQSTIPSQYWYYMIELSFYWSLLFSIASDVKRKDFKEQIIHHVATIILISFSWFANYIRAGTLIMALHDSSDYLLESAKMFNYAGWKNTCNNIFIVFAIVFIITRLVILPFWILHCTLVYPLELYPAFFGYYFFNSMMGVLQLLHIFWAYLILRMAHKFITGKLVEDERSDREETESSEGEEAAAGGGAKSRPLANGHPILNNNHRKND
UniProt Q01850: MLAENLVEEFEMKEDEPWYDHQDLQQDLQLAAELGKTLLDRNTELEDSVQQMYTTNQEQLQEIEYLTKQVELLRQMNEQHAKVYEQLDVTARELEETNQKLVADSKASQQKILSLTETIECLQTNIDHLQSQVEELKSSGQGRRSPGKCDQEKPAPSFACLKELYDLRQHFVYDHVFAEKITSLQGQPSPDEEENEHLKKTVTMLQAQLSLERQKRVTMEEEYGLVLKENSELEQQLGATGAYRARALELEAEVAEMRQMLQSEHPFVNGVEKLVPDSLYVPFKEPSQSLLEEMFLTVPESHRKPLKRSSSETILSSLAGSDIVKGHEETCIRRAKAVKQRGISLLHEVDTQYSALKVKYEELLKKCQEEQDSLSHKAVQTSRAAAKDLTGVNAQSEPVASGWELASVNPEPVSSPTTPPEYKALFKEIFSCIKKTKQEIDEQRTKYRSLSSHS
UniProt Q99618: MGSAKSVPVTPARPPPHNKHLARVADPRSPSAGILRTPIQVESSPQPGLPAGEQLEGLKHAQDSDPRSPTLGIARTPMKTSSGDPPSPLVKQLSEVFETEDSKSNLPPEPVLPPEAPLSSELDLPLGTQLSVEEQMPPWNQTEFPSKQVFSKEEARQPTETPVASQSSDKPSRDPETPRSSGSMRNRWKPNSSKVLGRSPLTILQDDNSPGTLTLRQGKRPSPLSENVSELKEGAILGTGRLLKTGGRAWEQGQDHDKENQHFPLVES
UniProt Q8IW35: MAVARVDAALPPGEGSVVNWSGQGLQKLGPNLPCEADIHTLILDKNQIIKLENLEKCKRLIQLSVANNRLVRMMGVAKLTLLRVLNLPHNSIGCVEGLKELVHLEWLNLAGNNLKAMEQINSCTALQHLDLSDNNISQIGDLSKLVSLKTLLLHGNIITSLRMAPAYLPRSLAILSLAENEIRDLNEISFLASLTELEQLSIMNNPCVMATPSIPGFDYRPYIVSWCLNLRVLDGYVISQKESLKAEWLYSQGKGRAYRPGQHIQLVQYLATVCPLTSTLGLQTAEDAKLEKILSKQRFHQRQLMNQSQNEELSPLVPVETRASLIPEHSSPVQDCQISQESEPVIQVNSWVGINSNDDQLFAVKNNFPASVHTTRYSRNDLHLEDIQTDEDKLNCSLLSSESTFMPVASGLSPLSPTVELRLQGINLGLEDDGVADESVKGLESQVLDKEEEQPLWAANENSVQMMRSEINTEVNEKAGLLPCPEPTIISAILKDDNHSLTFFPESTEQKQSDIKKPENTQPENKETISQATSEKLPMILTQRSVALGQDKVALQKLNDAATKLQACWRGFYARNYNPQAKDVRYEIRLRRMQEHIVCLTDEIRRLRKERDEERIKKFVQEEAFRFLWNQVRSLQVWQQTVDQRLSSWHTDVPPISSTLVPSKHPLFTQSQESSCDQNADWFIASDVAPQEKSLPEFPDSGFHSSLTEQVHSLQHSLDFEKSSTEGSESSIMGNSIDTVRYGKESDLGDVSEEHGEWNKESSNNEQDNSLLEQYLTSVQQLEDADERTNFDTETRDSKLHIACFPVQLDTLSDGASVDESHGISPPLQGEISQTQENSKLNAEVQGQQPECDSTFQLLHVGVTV
UniProt Q53HL2: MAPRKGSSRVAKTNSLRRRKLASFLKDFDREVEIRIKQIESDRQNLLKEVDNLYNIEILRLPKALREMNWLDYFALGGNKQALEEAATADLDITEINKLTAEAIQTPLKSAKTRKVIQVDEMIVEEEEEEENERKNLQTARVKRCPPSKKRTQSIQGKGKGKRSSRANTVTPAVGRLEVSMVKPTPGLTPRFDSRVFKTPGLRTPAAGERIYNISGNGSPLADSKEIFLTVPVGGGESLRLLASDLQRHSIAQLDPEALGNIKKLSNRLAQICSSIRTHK
UniProt P08603, whole entry, looked up: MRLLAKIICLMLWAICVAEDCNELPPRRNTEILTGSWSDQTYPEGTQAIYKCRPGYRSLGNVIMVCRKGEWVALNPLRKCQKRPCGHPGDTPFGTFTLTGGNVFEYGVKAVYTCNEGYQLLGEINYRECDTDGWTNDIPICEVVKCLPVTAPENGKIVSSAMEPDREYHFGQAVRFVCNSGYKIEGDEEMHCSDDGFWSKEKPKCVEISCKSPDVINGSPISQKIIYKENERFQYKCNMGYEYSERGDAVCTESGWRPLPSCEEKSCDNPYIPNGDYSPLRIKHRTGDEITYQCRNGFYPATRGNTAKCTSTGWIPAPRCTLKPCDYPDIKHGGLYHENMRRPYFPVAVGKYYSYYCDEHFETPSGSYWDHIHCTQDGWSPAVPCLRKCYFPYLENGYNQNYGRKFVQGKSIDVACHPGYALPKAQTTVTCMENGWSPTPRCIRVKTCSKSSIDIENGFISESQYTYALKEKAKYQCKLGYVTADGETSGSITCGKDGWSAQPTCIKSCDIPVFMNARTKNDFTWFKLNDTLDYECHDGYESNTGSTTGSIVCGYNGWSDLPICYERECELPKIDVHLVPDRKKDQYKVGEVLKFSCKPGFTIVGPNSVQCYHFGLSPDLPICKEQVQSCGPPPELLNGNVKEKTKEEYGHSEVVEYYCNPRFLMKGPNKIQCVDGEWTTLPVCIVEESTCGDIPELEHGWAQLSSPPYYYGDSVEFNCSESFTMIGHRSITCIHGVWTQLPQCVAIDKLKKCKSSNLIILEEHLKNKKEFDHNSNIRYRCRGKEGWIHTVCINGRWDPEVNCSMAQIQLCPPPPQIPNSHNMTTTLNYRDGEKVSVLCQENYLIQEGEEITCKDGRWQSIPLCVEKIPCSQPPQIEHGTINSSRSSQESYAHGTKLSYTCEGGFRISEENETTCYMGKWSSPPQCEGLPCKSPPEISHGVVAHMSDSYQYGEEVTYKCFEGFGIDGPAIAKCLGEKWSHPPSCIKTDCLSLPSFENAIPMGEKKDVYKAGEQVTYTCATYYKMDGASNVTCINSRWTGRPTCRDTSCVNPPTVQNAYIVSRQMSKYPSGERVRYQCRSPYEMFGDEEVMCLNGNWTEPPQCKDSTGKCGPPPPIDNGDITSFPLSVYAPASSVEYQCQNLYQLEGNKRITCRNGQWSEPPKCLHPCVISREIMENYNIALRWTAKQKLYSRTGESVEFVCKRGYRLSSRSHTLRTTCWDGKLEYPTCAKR
UniProt P49427: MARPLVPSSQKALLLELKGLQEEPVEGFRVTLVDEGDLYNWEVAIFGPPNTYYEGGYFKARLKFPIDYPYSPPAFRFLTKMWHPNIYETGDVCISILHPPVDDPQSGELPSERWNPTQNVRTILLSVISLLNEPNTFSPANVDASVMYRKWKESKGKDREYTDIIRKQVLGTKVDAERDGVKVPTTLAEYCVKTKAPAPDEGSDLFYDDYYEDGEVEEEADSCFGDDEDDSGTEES
UniProt Q9BWU1: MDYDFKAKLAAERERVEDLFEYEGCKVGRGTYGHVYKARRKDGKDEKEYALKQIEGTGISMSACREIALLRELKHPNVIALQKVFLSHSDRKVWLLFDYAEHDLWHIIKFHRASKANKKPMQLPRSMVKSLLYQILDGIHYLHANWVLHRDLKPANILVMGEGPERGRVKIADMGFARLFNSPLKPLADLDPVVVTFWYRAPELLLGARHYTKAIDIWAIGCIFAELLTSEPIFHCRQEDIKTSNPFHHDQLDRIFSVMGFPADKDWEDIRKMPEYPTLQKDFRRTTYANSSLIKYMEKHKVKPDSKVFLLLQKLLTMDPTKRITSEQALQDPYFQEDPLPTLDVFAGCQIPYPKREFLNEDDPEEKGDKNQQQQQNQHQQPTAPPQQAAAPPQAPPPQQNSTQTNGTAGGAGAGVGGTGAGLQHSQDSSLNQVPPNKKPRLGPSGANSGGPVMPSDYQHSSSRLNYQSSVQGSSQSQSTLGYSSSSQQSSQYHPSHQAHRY
UniProt Q9UHN6: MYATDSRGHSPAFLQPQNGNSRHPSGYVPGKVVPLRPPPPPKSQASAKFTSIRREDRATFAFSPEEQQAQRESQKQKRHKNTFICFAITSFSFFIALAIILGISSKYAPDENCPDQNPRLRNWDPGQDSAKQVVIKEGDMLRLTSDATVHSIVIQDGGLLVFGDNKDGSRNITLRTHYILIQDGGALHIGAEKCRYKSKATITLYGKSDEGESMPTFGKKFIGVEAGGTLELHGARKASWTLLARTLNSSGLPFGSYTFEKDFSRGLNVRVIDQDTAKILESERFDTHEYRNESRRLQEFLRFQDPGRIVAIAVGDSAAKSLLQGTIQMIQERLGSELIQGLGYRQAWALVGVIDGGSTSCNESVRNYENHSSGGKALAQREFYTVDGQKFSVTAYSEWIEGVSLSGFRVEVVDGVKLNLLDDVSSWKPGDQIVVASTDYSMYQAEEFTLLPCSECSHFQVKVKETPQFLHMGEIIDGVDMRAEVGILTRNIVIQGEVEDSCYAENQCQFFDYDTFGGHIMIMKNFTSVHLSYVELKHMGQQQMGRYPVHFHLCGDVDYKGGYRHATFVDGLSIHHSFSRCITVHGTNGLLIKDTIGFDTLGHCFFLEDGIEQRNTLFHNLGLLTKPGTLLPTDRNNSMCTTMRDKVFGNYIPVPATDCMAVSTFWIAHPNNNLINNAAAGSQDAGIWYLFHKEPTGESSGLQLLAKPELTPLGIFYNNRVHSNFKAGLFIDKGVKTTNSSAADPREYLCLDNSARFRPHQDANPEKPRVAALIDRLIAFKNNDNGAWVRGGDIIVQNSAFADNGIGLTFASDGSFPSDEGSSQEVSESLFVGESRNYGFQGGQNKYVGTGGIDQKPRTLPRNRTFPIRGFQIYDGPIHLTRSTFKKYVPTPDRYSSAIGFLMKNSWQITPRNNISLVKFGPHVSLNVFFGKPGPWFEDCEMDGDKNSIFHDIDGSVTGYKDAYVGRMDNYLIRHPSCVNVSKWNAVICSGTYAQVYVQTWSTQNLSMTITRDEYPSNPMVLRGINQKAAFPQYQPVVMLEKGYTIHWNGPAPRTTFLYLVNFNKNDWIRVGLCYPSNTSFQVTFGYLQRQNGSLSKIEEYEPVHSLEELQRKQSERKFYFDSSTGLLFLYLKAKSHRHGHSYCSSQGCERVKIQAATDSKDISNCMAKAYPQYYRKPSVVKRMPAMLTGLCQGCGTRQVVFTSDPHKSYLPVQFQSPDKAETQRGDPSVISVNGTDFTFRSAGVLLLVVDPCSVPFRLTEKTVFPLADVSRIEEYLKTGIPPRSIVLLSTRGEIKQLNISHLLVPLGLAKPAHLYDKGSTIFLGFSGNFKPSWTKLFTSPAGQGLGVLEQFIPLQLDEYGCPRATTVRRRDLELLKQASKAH
UniProt P41208: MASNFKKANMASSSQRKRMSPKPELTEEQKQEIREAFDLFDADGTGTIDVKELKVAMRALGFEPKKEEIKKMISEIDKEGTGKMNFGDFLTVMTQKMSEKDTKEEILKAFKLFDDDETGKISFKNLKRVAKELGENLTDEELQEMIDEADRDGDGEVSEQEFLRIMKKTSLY
UniProt P50750, whole entry, looked up: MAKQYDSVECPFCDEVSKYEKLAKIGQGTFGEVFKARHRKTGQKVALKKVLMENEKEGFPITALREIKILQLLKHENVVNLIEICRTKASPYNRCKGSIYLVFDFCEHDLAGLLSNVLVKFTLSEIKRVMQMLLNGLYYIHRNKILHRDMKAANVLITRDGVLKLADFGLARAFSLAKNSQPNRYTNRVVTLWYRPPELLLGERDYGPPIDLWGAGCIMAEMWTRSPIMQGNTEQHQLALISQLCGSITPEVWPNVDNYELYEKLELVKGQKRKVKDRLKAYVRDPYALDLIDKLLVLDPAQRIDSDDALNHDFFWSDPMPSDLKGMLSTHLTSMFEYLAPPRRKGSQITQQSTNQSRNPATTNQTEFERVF
UniProt Q96FF9: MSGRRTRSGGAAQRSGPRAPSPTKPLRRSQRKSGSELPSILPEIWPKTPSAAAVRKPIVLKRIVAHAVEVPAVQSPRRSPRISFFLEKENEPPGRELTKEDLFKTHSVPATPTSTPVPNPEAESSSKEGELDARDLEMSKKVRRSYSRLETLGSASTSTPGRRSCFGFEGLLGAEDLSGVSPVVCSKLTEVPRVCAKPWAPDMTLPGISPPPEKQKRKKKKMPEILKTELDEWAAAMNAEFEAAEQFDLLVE
UniProt P23528, whole entry, looked up: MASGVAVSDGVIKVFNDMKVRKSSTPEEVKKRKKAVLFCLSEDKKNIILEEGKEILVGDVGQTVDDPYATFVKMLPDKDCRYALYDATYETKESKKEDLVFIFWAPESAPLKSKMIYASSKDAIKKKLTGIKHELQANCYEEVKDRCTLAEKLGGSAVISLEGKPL

What was measured:
Test in all cases: log2 fold change, soluble protein after heating vs DMSO (PISA); higher = thermal stabilisation; K562 lysate, 10 uM; active = over 0.2 and 3.5 SD of the protein, either way, in both replicates (recomputed)
[1] = compound: C1=CC=C(C=C1)[C@H](COC2=CC3=C(C=C2)NC(=O)N3)NC(=O)C4=CC=CN(C4=O)CC5=CC(=C(C=C5)F)F
Summary of the method: (§1)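 Following dounce homogenisation of K562 pellets in PBS pH 7.4 with 1 mM MgCl2, crude extract at 1 mg/mL protein was incubated for 30 min with 10 μM compound. Aliquots were then heated for 3 min over 48°C-58°C and pooled, NP-40 was added to 0.5% at 4°C, and soluble protein was recovered as the supernatant at 21,000xg for 90 min. Channel-sum-equalised TMTpro 16plex LC-MS/MS quantified this protein. Each value, from duplicates, is a log-two fold change in thermal stability relative to solvent controls.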

[2] = compound: CC1=C(SC2=C1C(=N[C@H](C3=NN=C(N32)C)CC(=O)N)C4=CC=C(C=C4)Cl)C
Summary of the method: as §1

[3] = compound: CC1=C2C(=CC=C1)N=C(N(C2=O)C3=CC=CC=C3C)CN4C=NC5=C(N=CN=C54)N
Summary of the method: as §1

[4] = compound: Cc1sc2c(c1C)C(c1ccc(Cl)cc1)=N[C@@H](CC(=O)OC(C)(C)C)c1nnc(C)n1-2
Summary of the method: as §1

[5] = compound: c1ccc([C@@H]2C[C@H]2NC2CCNCC2)cc1
Summary of the method: as §1

Measured: log2 fold change

CFAP410 (UniProt O43822)
inactive: [1] -0.04 | [2] 0.039 | [3] 0.098

CDK2AP1 (UniProt O14519)
inactive: [1] 0.051 | [2] -0.17 | [3] -0.118 | [4] -0.033 | [5] -0.045

CDK6 (UniProt Q00534)
inactive: [1] -0.024 | [2] -0.018 | [3] -0.011 | [4] 0 | [5] 0.032

CENPH (UniProt Q9H3R5)
inactive: [1] 0.003 | [2] 0.001 | [3] 0.061 | [4] -0.049 | [5] 0.041

CDAN1 (UniProt Q8IWY9)
inactive: [1] -0.011 | [2] 0.011 | [3] 0.062 | [4] 0.026 | [5] 0.005

CEP192 (UniProt Q8TEP8)
inactive: [1] -0.081 | [2] -0.018 | [3] 0.018 | [4] 0.04 | [5] -0.053

CDC5L (UniProt Q99459)
inactive: [1] -0.002 | [2] -0.008 | [3] -0.017 | [4] 0.051 | [5] 0.012

CDC73 (UniProt Q6P1J9)
inactive: [1] -0.014 | [2] -0.011 | [3] 0.03 | [4] 0.006 | [5] 0.045

CERS2 (UniProt Q96G23)
inactive: [1] -0.038 | [2] 0.007 | [3] -0.019 | [4] 0.061 | [5] 0.12

CDR2 (UniProt Q01850)
inactive: [1] 0.025 | [2] -0.041 | [3] 0.013 | [4] 0.127 | [5] -0.011

CDCA3 (UniProt Q99618)
inactive: [1] 0.05 | [2] 0.006 | [3] 0.03 | [4] 0.026 | [5] -0.062

CEP350 (UniProt Q5VT06)
inactive: [1] -0.038 | [2] 0.008 | [3] 0.007 | [4] 0.009 | [5] 0.034

CFL1 (UniProt E9PP50)
inactive: [1] 0 | [2] -0.08

CDC7 (UniProt O00311)
inactive: [1] -0.063 | [2] 0.084 | [3] 0.019 | [4] 0.003 | [5] 0.008

CFDP1 (UniProt Q9UEE9)
inactive: [1] 0.051 | [2] -0.03 | [3] -0.017 | [4] -0.03 | [5] -0.124

CENPJ (UniProt Q9HC77)
inactive: [1] -0.004 | [2] -0.04 | [3] 0.133 | [4] -0.01

CEP97 (UniProt Q8IW35)
inactive: [1] -0.01 | [2] -0.024 | [3] 0.025 | [4] 0.033 | [5] -0.01

CDCA8 (UniProt Q53HL2)
inactive: [1] 0.038 | [2] 0.037 | [3] -0.213 | [4] -0.048 | [5] 0.104

CGGBP1 (UniProt Q9UFW8)
inactive: [1] 0.131 | [2] -0.03 | [3] 0.002 | [4] 0.001 | [5] -0.033

CEP120 (UniProt Q8N960)
inactive: [1] -0.074 | [2] 0.097 | [3] 0.145 | [4] -0.169 | [5] 0.184

CEBPZ (UniProt Q03701)
inactive: [1] -0.034 | [2] 0.08 | [3] -0.025 | [4] 0.008 | [5] 0.023

CFH (UniProt P08603)
inactive: [1] 0.062 | [2] 0.049 | [3] 0.011 | [4] -0.08 | [5] 0.067

CDK16 isoform 2 (UniProt Q00536)
inactive: [1] -0.02 | [2] -0.059 | [3] -0.11 | [4] -0.011 | [5] -0.049

CENPE (UniProt Q02224)
inactive: [1] -0.068 | [2] 0.013 | [3] 0.059 | [4] -0.01 | [5] -0.066

CHAC2 (UniProt Q8WUX2)
inactive: [1] 0.079 | [2] 0.005 | [3] 0.028 | [4] -0.025
active: [5] 0.344

CDC34 (UniProt P49427)
inactive: [1] -0.008 | [2] -0.019 | [3] -0.064 | [4] 0.021 | [5] 0.04

CDC23 (UniProt Q9UJX2)
inactive: [1] 0.003 | [2] -0.034 | [3] 0.011 | [4] 0.019 | [5] 0.047

CDK19 (UniProt Q9BWU1)
inactive: [1] 0.043 | [2] 0 | [3] -0.021 | [4] -0.178 | [5] -0.262

CDKN2C (UniProt P42773)
inactive: [1] -0.023 | [2] -0.165 | [3] 0.001 | [4] -0.016 | [5] 0.009

CEP152 (UniProt O94986)
inactive: [1] 0.024 | [2] -0.236 | [3] 0.01 | [4] 0.008 | [5] -0.028

CDKAL1 (UniProt Q5VV42)
inactive: [1] -0.049 | [2] 0.004 | [3] 0 | [4] 0.005 | [5] 0.044

CFAP36 (UniProt Q96G28)
inactive: [1] 0.026 | [2] -0.017 | [3] 0.021 | [4] -0.01 | [5] 0.041

CDC42EP1 (UniProt Q00587)
inactive: [1] 0.034 | [2] -0.092 | [3] 0.077 | [4] -0.104 | [5] 0

CEMIP2 (UniProt Q9UHN6)
inactive: [1] 0.202 | [2] -0.013 | [3] -0.023 | [4] -0.028 | [5] -0.001

CEBPB (UniProt P17676)
inactive: [1] 0.063 | [2] -0.067 | [3] -0.09 | [4] 0.127 | [5] -0.114

CDR2L (UniProt Q86X02)
inactive: [1] -0.04 | [2] 0.031 | [3] -0.153 | [4] 0.093 | [5] 0.02

CDK13 (UniProt Q14004)
inactive: [1] -0.091 | [2] -0.031 | [3] -0.052 | [4] 0.049 | [5] 0.052

CENPU (UniProt Q71F23)
inactive: [1] 0.079 | [2] -0.053 | [3] 0.008 | [4] -0.025 | [5] 0.172

CEPT1 (UniProt Q9Y6K0)
inactive: [1] -0.13 | [2] -0.017 | [3] 0.062 | [4] -0.054 | [5] 0.061

CDK7 (UniProt P50613)
inactive: [1] 0.016 | [2] 0.014 | [3] 0.012 | [4] -0.054 | [5] -0.013

CDC25C (UniProt P30307)
inactive: [1] 0.018 | [2] -0.011 | [3] 0.023 | [4] 0.07 | [5] 0.027

CETN2 (UniProt P41208)
inactive: [1] 0.006 | [2] 0.097 | [3] -0.042 | [4] 0.01 | [5] -0.002

CENPS (UniProt Q8N2Z9)
inactive: [1] 0.061 | [2] -0.021 | [3] -0.035 | [4] -0.015 | [5] -0.108

CDK8 (UniProt P49336)
inactive: [1] -0.05 | [2] -0.108 | [3] 0.202 | [4] 0.017 | [5] -0.045

CDK5RAP3 isoform 4 (UniProt Q96JB5)
inactive: [1] -0.011 | [2] -0.018 | [3] 0.022 | [4] -0.01 | [5] -0.154

CDK9 isoform 2 (UniProt P50750)
inactive: [1] -0.001 | [2] -0.043 | [3] -0.015 | [4] -0.008 | [5] -0.114

CDC25B (UniProt P30305)
inactive: [1] 0.031 | [2] -0.022 | [3] 0.126 | [4] 0.024 | [5] 0.019

CDCA5 (UniProt Q96FF9)
inactive: [1] 0.141 | [2] -0.035 | [3] 0.049 | [4] 0.002 | [5] 0.044

Quoted from above (3 entries):
CDK7 (UniProt P50613)
inactive: [1] 0.016 | [2] 0.014 | [3] 0.012 | [4] -0.054 | [5] -0.013

CDC25C (UniProt P30307)
inactive: [1] 0.018 | [2] -0.011 | [3] 0.023 | [4] 0.07 | [5] 0.027

CETN2 (UniProt P41208)
inactive: [1] 0.006 | [2] 0.097 | [3] -0.042 | [4] 0.01 | [5] -0.002

Continued:

CEP85 isoform 2 (UniProt Q6P2H3)
inactive: [1] -0.125 | [2] 0.045 | [3] 0.032 | [4] -0.06 | [5] 0.078

CDC42BPA isoform 6 (UniProt Q5VT25)
inactive: [1] 0.008 | [2] -0.003 | [3] -0.008 | [4] 0.026 | [5] 0.052

CDC123 (UniProt O75794)
inactive: [1] -0.035 | [2] 0.02 | [3] -0.038 | [4] 0.073 | [5] 0.004

CDC37L1 (UniProt Q7L3B6)
inactive: [1] 0.009 | [2] -0.042 | [3] -0.041 | [4] -0.058 | [5] -0.014

CFL1 (UniProt P23528)
inactive: [1] 0.021 | [2] -0.006 | [3] -0.007 | [4] 0.024 | [5] 0.001

CDV3 (UniProt Q9UKY7)
inactive: [1] 0.031 | [2] -0.022 | [3] -0.022 | [4] -0.018 | [5] -0.014
